Test results: paper PMC4706845
Results are given in words; binding and its absence hold for the method and conditions named. Binding can be weak; no strength is given.

Target: APP intracellular domain (AICD), full length AICD (human (cDNA from HeLa cells))
Experiment: proteo-liposome recruitment; cytoplasmic tails covalently coupled to liposomes, incubated with pig brain cytosol; proteo-liposomes separated on a sucrose cushion and pelleted at 4 °C; SDS-PAGE and western blot for Vac14 and PIKfyve; cysteine liposomes as negative control; only the target purified

binding: binds
B1: Vac14 from pig brain cytosol (protein, UniProt F1S3E8 1-783)
chain: MNPEKDFAPLTPNIVRALNDKLYEKRKVAALEIEKLVREFVAQNNTVQIKHVIQTLSQEFALSQHPHSRKGGLIGLAACSIALGKDSGLYLKELIEPVLTCFNDADSRLRYYACEALYNIVKVARGAVLPHFNVLFDGLSKLAADPDPNVKSGSELLDRLLKDIVTESNKFDLVGFIPLLRERIYSNNQYARQFIISWILVLESVPDINLLDYLPEILDGLFQILGDNGKEIRKMCEVVLGEFLKEIKKNPSSVKFAEMANILVIHCQTTDDLIQLTAMCWMREFIQLAGRVMLPYSSGILTAVLPCLAYDDRKKSIKEVANVCNQSLMKLVTPEDDEPDEPKPVVQKQAEAKPEDSSAKQEGTASGGPDGSCDSSFGGSIGVFSPASTERAPVTLHLDGIVQVLNCHLSDMAIGMMTRIAVLKWLYHLYIKTPRKMFRHTDSLFPILLQTLSDESDEVILKDLEVLAEIASSPAGQTDDAGPPDGPDLRVGHSELQVPTPGRASLLSTPGAKGLECSPSTPTMNSYFYKFMINLLKRFSSERKLLEVRGAFIIRQLCLLLNAENIFHSMADILLREEDLKFASTMVHTLNTILLTSTELFQLRNQLKDLRTPESRNLFCCLYRSWCHNPVTTVSLCFLTQNYRHAYDLIQKFGDLEVTVDFLTEVDKLVQLIECPIFTYLRLQLLDVKNNPYLIKALYGLLMLLPQSSAFQLLSHRLQCVPNPELLQTEDGLKAAPRSQNADSLSIDYAELLQHFERVQKKHLEVRHQRSGRGDHLDRRVVL
